# Measured values from PubChem BioAssay AID1347423 (Functional Genomics Laboratory (NCATS/FGL), 2020).
# The campaign covered roughly 52,000 sequences. About 210 (0.4%) were called active.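 The calls were made as follows: active = gene whose silencing raises cell survival under the drug, median off-target-corrected z-score across its silencing RNAs 2 or more; inactive = the rest.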 The list shows a part of the results.
# Assay: Resistance to Poly (ADP-Ribose) Polymerase inhibitor: Gene Identification via Genome-wide siRNA Screen
# Details: mouse BRCA2 R2336H ES cells, olaparib, CellTiter-Glo viability; hits give high values
# Method in brief: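 Genome-wide siRNA screen (3 siRNAs/gene, 20 nM) in mouse ES cells carrying hypomorphic BRCA2 R2336H; olaparib 500 nM added 48 h post-transfection, CellTiter-Glo viability 72 h later. Normalized to plate-median negative control; MAD z-scores, gene median, seed-adjusted.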
row,Sequence,z-score
1,GGCCCAAUGCUGUAAAUAUTT against Hoxb5,inactive: -0.122
2,GGUAACUCAAUUUUGUGUUTT against Gcet2,inactive: -0.189
3,GCAGAUCAAUGGAUUCACCTT against Olfr57,inactive: 1.39
4,GGUCAGCCUAAGAAUGUACTT against Isp1,inactive: -2.89
5,CCAAAAUCGAUAAUUCCCUTT against Acvr1,inactive: 0.486
6,GGAGGAAUGGAUGAACAAATT against Flcn,inactive: -2
7,GGACAAUGGGAACAUGUAATT against 1700022N24Rik,inactive: -0.178
8,GCCAUUCAUGGAGAAGGAUTT against BC020188,inactive: -1.95
9,CGGGAAGAGUACUUGUUUUTT against Cfl1,inactive: 0.0373
10,GGUGUUUCAGGUAUUGAAUTT against Ttk,inactive: -0.252
11,GCCUUUUAGCUGUUCAGGATT against AI451557,inactive: -1.18
12,GCACAAGCUGAAGAAGUCATT against S100b,inactive: 2.05
13,GAAAAGCCUAUGUAACUUCTT against Iltifb,inactive: 1.25
14,GCAACUCGACUGGUACUCUTT against Peg10,inactive: 1.33
15,CGUGUAUCUAGUCAUACGGTT against Tap2,inactive: 0.495
16,GGAAGAGACAAAGAGUACATT against 4933402J07,inactive: 0.0796
17,GGCAAUAGAAUCAAGAUUUTT against C130021I20,inactive: 0.151
18,CCAGUGAAGGUUUACUACUTT against Mrpl1,inactive: -0.407
19,GCUAAAUGAGAACAACUCGTT against Trappc2,inactive: 0.0288
20,CCUUUGCUCCACCUACACATT against Gm1053,inactive: -0.514
21,GCUGGGUGAUAAACAAUGUTT against Rhbg,inactive: -0.0089
22,GGCUGUGCUCUCACUCUAUTT against Actg2,inactive: -1.27
23,GGAUACCAUCAUUGAUGUCTT against Dmap1,inactive: -2.31
24,GGCAACAGUAUUUAUGAAUTT against Sim2,inactive: 0.513
25,CCUGAGGUGUUUUACAUAUTT against Usp49,inactive: -0.515
26,GCCUUAAUUAAACACGGCCTT against AL033326,inactive: 0.408
27,GGAAUACGGAUUGAUGGAGTT against Fli1,inactive: 4.01
28,CCCACCACGAAAACUUAUGTT against Hnrph1,inactive: 0.823
29,GGAAAAAGAGGCCAAAAAGTT against Rbbp1,inactive: -0.183

# Some of the entries so far, bar-delimited.
row | Sequence | z-score
6 | GGAGGAAUGGAUGAACAAATT against Flcn | inactive: -2
18 | CCAGUGAAGGUUUACUACUTT against Mrpl1 | inactive: -0.407
21 | GCUGGGUGAUAAACAAUGUTT against Rhbg | inactive: -0.0089
24 | GGCAACAGUAUUUAUGAAUTT against Sim2 | inactive: 0.513
27 | GGAAUACGGAUUGAUGGAGTT against Fli1 | inactive: 4.01
28 | CCCACCACGAAAACUUAUGTT against Hnrph1 | inactive: 0.823
29 | GGAAAAAGAGGCCAAAAAGTT against Rbbp1 | inactive: -0.183
